Reference: the supplement of paper PMC3334620
In all, about 33,000 sequences were measured (“E-score (-0.5 to 0.5)”: median about -8e-05, highest 2% from about 0.23 on). This is one part of the list.

Biological target: T1, Nrg2 (UniProt P38082)
T1 sequence: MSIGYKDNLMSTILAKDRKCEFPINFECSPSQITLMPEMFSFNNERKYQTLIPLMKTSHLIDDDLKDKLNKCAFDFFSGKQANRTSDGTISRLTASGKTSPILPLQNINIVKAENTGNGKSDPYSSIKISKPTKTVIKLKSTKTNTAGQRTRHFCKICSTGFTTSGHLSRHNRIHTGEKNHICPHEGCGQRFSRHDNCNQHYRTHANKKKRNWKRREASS
Experiment: PBM E-score (8-mer binding enrichment) (E-score (-0.5 to 0.5)); higher = stronger / more preferred TF binding
Settings: protein concentration: 100 nM; construct: GST-full length
Method: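 Universal 'all 10-mer' protein binding microarrays (Agilent AMADID 015681) probed with GST-tagged S. cerevisiae TFs (full-length or DBD) made by in vitro transcription/translation (PURExpress), about 100-200 nM. Bound TF was detected with fluorescent anti-GST. Each ungapped 8-mer (which stands for itself and its reverse complement) is scored by the PBM enrichment score (E-score), a modified Wilcoxon-Mann-Whitney statistic from -0.5 to +0.5, computed with the Universal PBM Analysis Suite. Scale: above 0.35 generally sequence-specific binding.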

Sequence	PBM E-score
AGCTGAGA	-0.00603
AGCTAGAA	-0.0709
TCGCGGCA	-0.0381
CACGACTG	-0.164
CCTACGGC	-0.0487
ATGCGATC	-0.00432
AAACATAC	-0.0466
AGTCCTAC	-0.113
GATCATAA	0.186
GGAGGTCA	-0.1
AGGACCAT	-0.067
CATTAATC	0.00049
CGAGCTAC	0.124
AGGTTGCG	-0.0343
TACGGTCA	-0.0837
ACCGTTGC	0.103
AGTATGGG	0.0265
AAATAGGC	0.0434
ATGTCAAG	-0.0778
CTAATAGC	0.0195
CCCAAATA	0.0934
GAAGACCC	0.164
TAAATGGA	-0.0213
GTATAAAC	0.156
AAGTGCGC	0.0541

Given with each value named: entries from further up
CACGACTG
  PBM E-score: -0.164
ATGCGATC
  PBM E-score: -0.00432
AAATAGGC
  PBM E-score: 0.0434

Carrying on.

Sequence	PBM E-score
GAGGCGCA	-0.0533
GGAGCCTA	-0.0975
CATAAGAA	0.254
CCACGCAG	0.0276
GCGAACCA	0.0408
ATGAAAGG	0.0927
AAAGATGC	-0.0405
ATACCGAT	-0.165
TAAGAAGA	0.034
TACCTTGA	0.0991
AATTATAA	0.0953
CGACTCCC	-0.182
ACCATACT	0.0482
GGACACCC	-0.0523
ACGAAAGT	0.0299
AAATGAGT	0.0784
GCAAGCGC	0.0122
AACCAATC	0.125
TGGACCCA	0.0535
AAGCGAGC	0.152
CATGACAG	0.0637
ATACATAG	0.21
CTACGCGA	0.00636
ATAAAACC	0.143
AACTTCAA	0.0208

Fetched one by one from the entries so far (5):
Sequence	PBM E-score
CATGACAG	0.0637
CTACGCGA	0.00636
AACTTCAA	0.0208
CGACTCCC	-0.182
ACCATACT	0.0482

Next part:

Sequence	PBM E-score
GTGAAATA	0.0732
ATAAGAGA	0.0359
CAGCTTAA	0.019
GAACCTGA	0.0838
ACACGACT	-0.00048
ACCTTCGA	0.0275
GGACAACA	0.174
CATCGCAA	-0.13
AGATACAT	0.192
TCACGGGA	0.118
TGCGCCCA	-0.0934
TGACAAAA	0.13
ACCCCTCA	0.0629
GGAAAGTA	0.212
AACTGTGA	0.192
CCCGTCAG	-0.139
GCTGTAAC	0.0848
AATCACCC	0.155
AGAGGGGC	-0.1
AAAGATAC	0.232
ACCGCCTC	-0.17
CTATTCAG	0.0349
ACAGATCT	0.0451
AAGGTCGC	-0.0587
ACGGGACA	0.0203

Sequence	PBM E-score
CAGATTTA	0.131
AAGGCAAC	0.0667
GCCCAAGA	-0.102
AAGATCCT	0.123
AATTGAGG	0.0708
ATATATCA	0.196
ACCATGAA	0.199
ACCAAACT	0.102
GTGGTCCA	0.0422
GTGCATAA	-0.0219
ATGCCAGA	0.0482
CGGGCGCC	0.0792
GCTTCCAC	-0.206
AGTTGGCC	-0.16
CATTCAAC	0.0133
ATTAGATG	0.195
TTAAAGAA	0.144
CATCCGGC	-0.0322
TAAGGGAA	0.0768
ACACCCAC	0.0311
CCTCGGCC	0.121
CGTTATAC	-0.19
AGTAACTA	0.176
CAAATAAG	-0.00144
AGAACCGC	0.0943

Sequence	PBM E-score
AGACACTC	-0.0725
TAGCCGAA	0.036
TACCGCTA	-0.101
CGTGTGGA	-0.0391
TCACTAGA	0.0361
CTTAGTCC	-0.107
CAGTAATG	-0.0052
AACCCGTC	-0.152
GCAGTAAC	-0.0897
GTCGCCGA	-0.095
ATACTCTA	-0.0571
GAGACACA	0.0645
AAAAACTA	0.136
ACTTCAAC	-0.0267
AGCATGGA	-0.181
AGCGACAG	0.0447
CAAAATAG	-0.00183
AAAAGTCT	-0.194
AACGTAAC	0.00432
CATCAAGA	-0.00089
TGAATACA	0.0782
CAGACCTC	-0.183
GGGGGCAA	-0.207
ACTCCCTG	0.0291
ATATATCG	0.161

Sequence	PBM E-score
AAGTCGTA	-0.164
AGTCAACA	0.00316
CAGGGCAA	0.188
AGAGCATC	-0.0447
GGCGGCGA	-0.107
TACGGCGA	0.0279
GTACAATA	0.128
CCTATAAC	-0.197
CCGAGTAC	-0.0185
AGCTATTC	-0.111
ACTTGGCT	0.0269
CACCCGAG	-0.0746
CTAACAGA	0.0875
GGCGCTCA	-0.0461
GATCTCCC	-0.138
ATGCAGTC	-0.244
ACAACAAT	0.0865
TGAGTTAA	0.0318
AATAAAGG	-0.0433
AGCTCCTG	-0.201
AGAAGCCG	0.141
AGGGCACC	-0.113
CCCAAGAG	-0.174
GCTAGTCA	-0.203
AGCGACTC	0.00573

Sequence	PBM E-score
GTGGTGTA	-0.106
AATAAATA	0.246
CGCAGAGA	0.0184
GGTGAAAA	0.158
ACGGGGTC	0.0404
ATTCAGCC	-0.0946
ATCCCACA	-0.0492
GGTGTAAC	0.018
CGAAAGAC	-0.0591
ACGGCGCA	0.102
ACATGAGG	-0.21
ACCGTTGG	-0.0948
CATTAGTC	-0.0583
CTTTTACA	0.0661
GCAGGCCA	-0.00487
AGGGTCTA	0.356
GAATATGA	-0.0524
GAAAGAGC	-0.0335
CCCAAACG	-0.123
CCCACGGC	-0.0251
ATGCACGG	-0.0196
CGCTTCAG	0.0138
